Source: the supplement of paper PMC10849652
This is one part of the list.

The chains behind the UniProt entries cited, without tags or fusion partners. Where a name states a change or a piece, a line headed by the entry shows the natural chain unless it says otherwise.
UniProt Q8NCL4: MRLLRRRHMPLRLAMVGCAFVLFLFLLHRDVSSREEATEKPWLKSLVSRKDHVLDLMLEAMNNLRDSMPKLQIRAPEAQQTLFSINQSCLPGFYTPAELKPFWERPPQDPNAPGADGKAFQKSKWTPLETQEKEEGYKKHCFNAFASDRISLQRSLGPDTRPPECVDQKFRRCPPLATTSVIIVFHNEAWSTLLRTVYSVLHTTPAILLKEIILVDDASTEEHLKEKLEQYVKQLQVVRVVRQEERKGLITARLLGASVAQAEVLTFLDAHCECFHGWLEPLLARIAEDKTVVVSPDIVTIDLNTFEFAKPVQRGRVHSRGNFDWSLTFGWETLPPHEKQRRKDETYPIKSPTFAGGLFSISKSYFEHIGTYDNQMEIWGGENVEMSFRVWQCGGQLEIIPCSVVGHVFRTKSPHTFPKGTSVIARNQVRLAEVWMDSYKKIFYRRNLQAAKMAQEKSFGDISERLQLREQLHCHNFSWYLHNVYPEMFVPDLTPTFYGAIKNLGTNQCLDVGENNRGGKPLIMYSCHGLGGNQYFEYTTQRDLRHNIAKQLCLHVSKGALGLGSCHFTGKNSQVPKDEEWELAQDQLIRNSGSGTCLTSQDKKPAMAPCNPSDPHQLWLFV
UniProt Q9NXC2: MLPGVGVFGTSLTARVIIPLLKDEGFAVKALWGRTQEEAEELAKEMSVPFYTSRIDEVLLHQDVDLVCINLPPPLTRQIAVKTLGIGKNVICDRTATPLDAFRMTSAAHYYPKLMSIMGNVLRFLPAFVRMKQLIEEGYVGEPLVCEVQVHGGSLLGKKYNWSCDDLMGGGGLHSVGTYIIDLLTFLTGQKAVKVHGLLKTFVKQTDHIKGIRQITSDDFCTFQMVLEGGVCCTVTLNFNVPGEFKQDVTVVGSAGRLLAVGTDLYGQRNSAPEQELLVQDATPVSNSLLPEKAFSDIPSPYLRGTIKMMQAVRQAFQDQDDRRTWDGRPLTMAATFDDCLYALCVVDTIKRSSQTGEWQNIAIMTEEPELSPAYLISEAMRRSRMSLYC
UniProt P19440: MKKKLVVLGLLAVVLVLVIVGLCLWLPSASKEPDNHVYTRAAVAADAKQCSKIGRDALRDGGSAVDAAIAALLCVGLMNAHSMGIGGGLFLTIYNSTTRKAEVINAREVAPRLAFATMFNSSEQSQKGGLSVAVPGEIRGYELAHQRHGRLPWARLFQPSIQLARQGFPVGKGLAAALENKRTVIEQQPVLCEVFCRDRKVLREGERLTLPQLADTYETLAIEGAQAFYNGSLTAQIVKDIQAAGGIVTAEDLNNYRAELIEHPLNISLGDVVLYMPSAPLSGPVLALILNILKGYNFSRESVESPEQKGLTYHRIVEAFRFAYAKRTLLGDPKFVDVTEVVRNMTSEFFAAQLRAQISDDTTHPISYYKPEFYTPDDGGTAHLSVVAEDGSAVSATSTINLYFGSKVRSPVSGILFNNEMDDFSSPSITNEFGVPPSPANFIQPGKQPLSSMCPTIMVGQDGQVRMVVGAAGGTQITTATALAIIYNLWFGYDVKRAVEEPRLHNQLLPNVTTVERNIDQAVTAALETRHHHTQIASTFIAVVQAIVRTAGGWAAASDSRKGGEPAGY
UniProt Q96DB9: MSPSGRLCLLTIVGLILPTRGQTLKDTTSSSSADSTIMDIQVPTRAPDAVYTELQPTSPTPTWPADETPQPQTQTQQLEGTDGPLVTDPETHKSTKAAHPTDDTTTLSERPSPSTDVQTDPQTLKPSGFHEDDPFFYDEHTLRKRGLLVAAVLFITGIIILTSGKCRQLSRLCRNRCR
UniProt O94915: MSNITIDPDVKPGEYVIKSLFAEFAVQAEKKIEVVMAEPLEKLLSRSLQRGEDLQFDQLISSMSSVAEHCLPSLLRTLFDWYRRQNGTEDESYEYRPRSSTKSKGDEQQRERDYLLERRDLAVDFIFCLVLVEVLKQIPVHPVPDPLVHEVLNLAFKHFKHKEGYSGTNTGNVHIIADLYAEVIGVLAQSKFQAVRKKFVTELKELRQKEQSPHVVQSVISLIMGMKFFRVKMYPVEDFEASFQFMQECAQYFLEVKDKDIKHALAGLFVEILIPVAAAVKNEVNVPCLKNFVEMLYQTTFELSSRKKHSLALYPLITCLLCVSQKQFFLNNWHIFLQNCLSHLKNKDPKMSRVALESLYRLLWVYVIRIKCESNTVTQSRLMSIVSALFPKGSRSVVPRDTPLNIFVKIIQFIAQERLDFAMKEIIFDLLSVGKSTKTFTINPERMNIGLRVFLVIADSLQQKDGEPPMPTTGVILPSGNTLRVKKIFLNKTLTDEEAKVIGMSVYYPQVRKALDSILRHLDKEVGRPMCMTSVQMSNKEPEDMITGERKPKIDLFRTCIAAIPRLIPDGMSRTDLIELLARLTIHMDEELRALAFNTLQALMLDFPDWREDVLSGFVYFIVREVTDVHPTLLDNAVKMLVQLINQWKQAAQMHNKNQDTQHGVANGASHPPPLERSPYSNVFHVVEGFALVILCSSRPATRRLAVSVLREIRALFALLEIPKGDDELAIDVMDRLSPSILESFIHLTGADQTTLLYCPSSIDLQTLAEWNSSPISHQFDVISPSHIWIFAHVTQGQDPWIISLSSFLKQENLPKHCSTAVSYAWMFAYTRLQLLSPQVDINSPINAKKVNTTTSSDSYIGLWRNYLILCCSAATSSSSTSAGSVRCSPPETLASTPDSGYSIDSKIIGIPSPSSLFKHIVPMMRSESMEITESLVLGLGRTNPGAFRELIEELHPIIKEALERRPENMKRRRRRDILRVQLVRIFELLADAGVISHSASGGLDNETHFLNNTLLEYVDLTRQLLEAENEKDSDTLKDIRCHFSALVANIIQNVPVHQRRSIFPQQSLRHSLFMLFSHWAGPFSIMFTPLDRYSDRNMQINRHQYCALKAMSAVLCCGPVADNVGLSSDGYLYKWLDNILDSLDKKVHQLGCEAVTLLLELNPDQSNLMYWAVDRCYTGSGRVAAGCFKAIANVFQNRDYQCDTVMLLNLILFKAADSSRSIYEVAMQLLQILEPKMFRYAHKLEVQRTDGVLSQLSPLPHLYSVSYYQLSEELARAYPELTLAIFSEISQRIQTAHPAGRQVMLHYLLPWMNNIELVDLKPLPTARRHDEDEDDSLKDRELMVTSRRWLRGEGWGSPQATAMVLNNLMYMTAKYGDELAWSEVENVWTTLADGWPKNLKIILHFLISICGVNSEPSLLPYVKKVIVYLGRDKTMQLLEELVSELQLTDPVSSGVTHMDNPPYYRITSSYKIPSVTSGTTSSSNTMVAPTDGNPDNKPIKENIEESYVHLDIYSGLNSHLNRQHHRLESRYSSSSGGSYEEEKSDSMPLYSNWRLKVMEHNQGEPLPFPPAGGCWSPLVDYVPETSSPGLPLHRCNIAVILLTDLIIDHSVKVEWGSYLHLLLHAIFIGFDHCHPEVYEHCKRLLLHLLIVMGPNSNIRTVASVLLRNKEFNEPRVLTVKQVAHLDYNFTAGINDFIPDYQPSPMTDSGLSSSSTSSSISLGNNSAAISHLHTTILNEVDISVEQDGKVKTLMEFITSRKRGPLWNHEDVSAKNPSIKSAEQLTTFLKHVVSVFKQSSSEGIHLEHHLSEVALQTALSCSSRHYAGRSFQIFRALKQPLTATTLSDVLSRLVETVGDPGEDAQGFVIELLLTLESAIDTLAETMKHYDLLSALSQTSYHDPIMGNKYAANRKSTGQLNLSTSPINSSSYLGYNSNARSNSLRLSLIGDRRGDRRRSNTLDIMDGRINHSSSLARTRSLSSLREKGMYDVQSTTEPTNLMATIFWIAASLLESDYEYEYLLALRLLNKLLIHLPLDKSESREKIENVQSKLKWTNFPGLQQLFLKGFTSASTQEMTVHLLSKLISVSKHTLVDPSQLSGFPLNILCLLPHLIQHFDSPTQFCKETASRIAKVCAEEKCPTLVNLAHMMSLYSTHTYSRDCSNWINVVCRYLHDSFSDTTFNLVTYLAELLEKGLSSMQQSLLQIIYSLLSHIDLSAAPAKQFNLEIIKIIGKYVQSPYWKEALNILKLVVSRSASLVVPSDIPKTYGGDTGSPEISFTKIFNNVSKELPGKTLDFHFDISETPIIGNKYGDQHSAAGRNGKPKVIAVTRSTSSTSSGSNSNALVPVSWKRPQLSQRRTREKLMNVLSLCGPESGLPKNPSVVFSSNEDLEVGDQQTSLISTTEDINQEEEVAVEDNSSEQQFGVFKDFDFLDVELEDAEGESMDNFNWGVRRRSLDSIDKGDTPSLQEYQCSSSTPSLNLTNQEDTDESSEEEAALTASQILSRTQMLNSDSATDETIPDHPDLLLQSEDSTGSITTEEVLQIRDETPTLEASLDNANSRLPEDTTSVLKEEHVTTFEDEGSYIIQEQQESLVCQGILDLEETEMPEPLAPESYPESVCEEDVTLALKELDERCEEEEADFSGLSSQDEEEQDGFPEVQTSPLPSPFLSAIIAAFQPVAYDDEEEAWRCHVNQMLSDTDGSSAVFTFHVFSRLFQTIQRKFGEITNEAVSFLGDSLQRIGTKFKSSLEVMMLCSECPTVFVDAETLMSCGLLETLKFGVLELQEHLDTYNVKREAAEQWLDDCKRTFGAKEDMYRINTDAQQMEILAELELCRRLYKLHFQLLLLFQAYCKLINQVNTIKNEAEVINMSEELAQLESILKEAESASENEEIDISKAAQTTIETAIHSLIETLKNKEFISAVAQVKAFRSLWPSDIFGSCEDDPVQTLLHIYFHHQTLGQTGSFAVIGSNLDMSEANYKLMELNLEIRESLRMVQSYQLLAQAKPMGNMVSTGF
UniProt P22466: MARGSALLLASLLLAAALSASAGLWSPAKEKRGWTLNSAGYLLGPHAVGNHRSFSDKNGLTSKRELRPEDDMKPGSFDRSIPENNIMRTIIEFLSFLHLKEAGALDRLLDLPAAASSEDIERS
UniProt Q9H840: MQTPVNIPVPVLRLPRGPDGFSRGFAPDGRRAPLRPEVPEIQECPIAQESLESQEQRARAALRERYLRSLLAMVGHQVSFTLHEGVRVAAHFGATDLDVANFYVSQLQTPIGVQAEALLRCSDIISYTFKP
UniProt P04406: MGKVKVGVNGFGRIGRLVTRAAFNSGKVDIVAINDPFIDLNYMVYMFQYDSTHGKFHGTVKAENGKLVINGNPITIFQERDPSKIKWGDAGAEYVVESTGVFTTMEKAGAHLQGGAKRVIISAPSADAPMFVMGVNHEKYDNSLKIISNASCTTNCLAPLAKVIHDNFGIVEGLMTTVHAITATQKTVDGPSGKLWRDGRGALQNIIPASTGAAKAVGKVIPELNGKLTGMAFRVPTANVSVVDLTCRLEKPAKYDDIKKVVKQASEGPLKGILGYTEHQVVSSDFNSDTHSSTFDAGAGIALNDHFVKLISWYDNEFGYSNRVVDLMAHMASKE
UniProt Q8IY81: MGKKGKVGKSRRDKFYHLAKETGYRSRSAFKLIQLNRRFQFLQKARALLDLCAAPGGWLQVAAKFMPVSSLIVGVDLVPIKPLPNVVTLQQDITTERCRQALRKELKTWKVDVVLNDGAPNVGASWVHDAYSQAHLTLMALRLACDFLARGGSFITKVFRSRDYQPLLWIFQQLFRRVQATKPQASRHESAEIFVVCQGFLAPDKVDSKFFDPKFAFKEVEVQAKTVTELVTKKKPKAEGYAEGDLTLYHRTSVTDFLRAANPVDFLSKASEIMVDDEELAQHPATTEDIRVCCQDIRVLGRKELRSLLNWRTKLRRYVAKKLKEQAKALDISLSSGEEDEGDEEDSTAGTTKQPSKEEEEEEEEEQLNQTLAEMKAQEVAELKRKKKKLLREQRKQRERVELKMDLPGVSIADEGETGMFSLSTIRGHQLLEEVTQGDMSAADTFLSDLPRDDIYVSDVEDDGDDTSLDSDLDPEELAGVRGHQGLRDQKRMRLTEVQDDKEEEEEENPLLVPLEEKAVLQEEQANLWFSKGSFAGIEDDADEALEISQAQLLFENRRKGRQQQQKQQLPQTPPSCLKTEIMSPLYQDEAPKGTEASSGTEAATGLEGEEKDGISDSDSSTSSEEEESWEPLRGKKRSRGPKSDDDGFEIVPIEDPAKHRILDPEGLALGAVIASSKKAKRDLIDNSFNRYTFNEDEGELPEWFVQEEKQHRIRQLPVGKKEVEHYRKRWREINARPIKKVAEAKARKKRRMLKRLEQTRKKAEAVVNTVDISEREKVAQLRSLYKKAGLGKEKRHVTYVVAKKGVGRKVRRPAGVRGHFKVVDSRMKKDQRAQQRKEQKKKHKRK
UniProt P19526, whole entry, looked up: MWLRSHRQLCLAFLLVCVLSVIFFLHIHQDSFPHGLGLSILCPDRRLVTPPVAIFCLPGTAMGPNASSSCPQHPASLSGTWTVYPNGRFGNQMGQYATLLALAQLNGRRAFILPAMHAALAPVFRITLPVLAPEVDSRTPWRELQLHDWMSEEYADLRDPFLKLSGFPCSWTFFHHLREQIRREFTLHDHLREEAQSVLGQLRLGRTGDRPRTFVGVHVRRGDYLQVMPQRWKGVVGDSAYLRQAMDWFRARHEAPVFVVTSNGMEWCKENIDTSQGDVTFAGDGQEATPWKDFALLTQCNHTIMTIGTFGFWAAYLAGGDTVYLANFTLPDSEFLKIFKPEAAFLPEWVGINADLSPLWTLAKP

Key:
Experiment in all cases: log2 fold change, soluble protein after heating vs DMSO (PISA); higher = thermal stabilisation; K562 cells, 10 uM, 30 min; active = over 0.2 and 3.5 SD of the protein, either way, in both replicates (recomputed)
[1] = compound: CN(C)CC(=O)Nc1ccc2[nH]c(=O)c3ccccc3c2c1
Outline: (§1)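 For each measurement, 10 μM compound was applied for 30 min to K562 cells at 2×10^6 cells/mL. Aliquots were heated for 3 min across 48°C-58°C, pooled, and extracted in PBS with 0.5% NP-40 at 4°C; the supernatant after 21,000xg for 90 min was soluble protein. This was quantified by TMTpro 16plex LC-MS/MS with channel sums equalised, and thermal stability was reported relative to control samples from duplicates, on a log2 fold-change scale.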

[2] = compound: CN1CC[C@H](c2c(O)cc(O)c3c(=O)cc(-c4ccccc4Cl)oc23)[C@H](O)C1 [alvocidib]
Outline: as §1

[3] = compound: CNC(=O)c1ccc(Nc2ncc(C(F)(F)F)c(NCc3nccnc3N(C)S(C)(=O)=O)n2)cc1 [defactinib]
Outline: as §1

[4] = compound: COC(=O)[C@H](CCSC)NC(=O)C1=C(C=C(C=C1)NC[C@H](CS)N)C2=CC=CC=C2
Outline: as §1

[5] = compound: CC[C@@H]1C(=O)N(C)c2cnc(Nc3ccc(C(=O)N[C@H]4CC[C@H](N5CCN(CC6CC6)CC5)CC4)cc3OC)nc2N1C(C)C [volasertib]
Outline: as §1

[6] = compound: CC[C@H](C)N1C=C(C2=C(C=C(C=C21)C3=CN=C(C=C3)N4CCNCC4)C(=O)NCC5=C(C=C(NC5=O)C)C)C
Outline: as §1

[7] = compound: CC[C@H](C)[C@@H](C(=O)N[C@@H]([C@@H](C)O)C(=O)N[C@@H](CC(C)C)C(=O)[C@]1(CO1)C)NC(=O)[C@H]([C@@H](C)CC)N(C)C(=O)C [epoxomicin]
Outline: as §1

[8] = compound: CCn1c(C(=O)N(C2CC2)C2CC2)cc2c3c(ncn3C)c(Nc3cc(C)n(C)n3)nc21
Outline: as §1

[9] = compound: CN(CCOC1=CC=C(C=C1)C[C@H]2C(=O)NC(=O)S2)C3=CC=CC=N3 (racemic) [rosiglitazone]
Outline: as §1

[10] = compound: CN1C2=C(C3=C1C(=O)N(N=C3)CC4=CC(=CC=C4)N)SC(=C2)S(=O)C
Outline: as §1

[11] = compound: CN1CCN(CCOc2cc(OC3CCOCC3)c3c(Nc4c(Cl)ccc5c4OCO5)ncnc3c2)CC1 [saracatinib]
Outline: as §1

[12] = compound: CN1CCN(c2nc(C3=C(c4c[nH]c5ccccc45)C(=O)NC3=O)c3ccccc3n2)CC1 [sotrastaurin]
Outline: as §1

[13] = compound: CN1CCc2c(c3ccccc3n2Cc2ccc(C(=O)NO)cc2)C1 [Tubastatin A]
Outline: as §1

[14] = compound: CNC(=O)C1=CC=CC=C1NC2=NC(=NC=C2Cl)NC3=C(C=C(C=C3)N4CCOCC4)OC
Outline: as §1

[15] = compound: CNc1nc(-c2ccc3c(N)n[nH]c3c2)cc(N2C[C@@H](C(=O)NC3CCCCC3)CC[C@H]2C)n1
Outline: as §1

[16] = compound: CCn1cc(-c2ccnc3[nH]c(-c4cccc(CN(C)C)c4)cc23)c(-c2ccc(NC(=O)N(C)C)cc2)n1
Outline: as §1

[17] = compound: CN1CCC(CNc2ccc3ncc(-c4cccc(OC(F)(F)F)c4)n3n2)CC1
Outline: as §1

Measured: log2 fold change

FOXJ2 (UniProt Q9P0K8)
inactive: [1] -0.077 | [2] -0.047 | [3] -0.333 | [4] -0.075

GALNT6 (UniProt Q8NCL4)
inactive: [5] -0.045 | [6] 0.116 | [7] 0.031 | [8] -0.145 | [9] -0.13 | [10] -0.506 | [11] 0.249 | [12] 0.055 | [13] -0.005 | [14] 0.006 | [15] -0.018

GALNT3 (UniProt Q14435)
inactive: [8] 0.146 | [16] 0.035 | [17] 0.128 | [13] 0.092 | [14] -0.053

GFOD1 (UniProt Q9NXC2)
inactive: [5] 0.075 | [7] -0.008 | [8] -0.114 | [16] -0.003 | [17] 0.127 | [14] 0.065

GCFC2 isoform 3 (UniProt P16383)
inactive: [5] 0.196 | [8] -0.11 | [1] -0.015 | [10] -0.054 | [11] -0.31 | [13] -0.279 | [14] -0.008 | [3] 0.018 | [15] 0.015 | [4] 0.007

GGT1 (UniProt P19440)
inactive: [5] 0.017 | [7] -0.032 | [8] -0.013 | [16] 0.134 | [9] 0.086 | [10] -0.155 | [17] -0.086 | [11] 0.008 | [12] 0.025 | [13] -0.165 | [14] -0.105 | [15] 0.137

FXYD5 (UniProt Q96DB9)
inactive: [5] -0.129 | [16] 0.216 | [1] -0.062 | [10] -0.007 | [17] -0.08 | [11] 0.062 | [12] 0.034 | [2] -0.489 | [3] -0.023 | [15] -0.039 | [4] -0.148

FUT11 (UniProt Q495W5)
inactive: [5] 0.192 | [6] -0.174 | [7] -0.01 | [8] -0.068 | [16] -0.108 | [1] -0.13 | [9] 0.062 | [10] 0.064 | [17] 0.089 | [11] -0.003 | [12] 0.071 | [2] 0.171 | [13] 0.055 | [14] 0.06 | [3] 0.157 | [15] 0.03 | [4] -0.061

2 successive entries already listed, for reference:
GFOD1 (UniProt Q9NXC2)
inactive: [5] 0.075 | [7] -0.008 | [8] -0.114 | [16] -0.003 | [17] 0.127 | [14] 0.065

GCFC2 isoform 3 (UniProt P16383)
inactive: [5] 0.196 | [8] -0.11 | [1] -0.015 | [10] -0.054 | [11] -0.31 | [13] -0.279 | [14] -0.008 | [3] 0.018 | [15] 0.015 | [4] 0.007

The results go on.

GATB (UniProt O75879)
inactive: [5] -0.56 | [6] 0.112 | [7] 0.149 | [8] -0.213 | [16] -0.056 | [1] 0.116 | [10] 0.053 | [17] -0.455 | [11] 0.007 | [12] -0.177 | [13] 0.031 | [14] -0.092 | [3] -0.257 | [15] -0.042 | [4] -0.308

FRYL isoform 2 (UniProt O94915)
inactive: [5] -0.139 | [7] 0.083 | [1] 0.115 | [2] 0.121 | [3] 0.064 | [4] -0.146

GCC1 (UniProt Q96CN9)
inactive: [6] -0.016 | [7] -0.329 | [8] 0.03 | [16] 0.176 | [17] -0.121 | [14] 0.017

GAL (UniProt P22466)
inactive: [8] 0.034 | [1] 0.042 | [9] -0.068 | [14] 0.118 | [3] -0.201 | [4] 0.04

FZD1 (UniProt Q9UP38)
inactive: [6] 0.122 | [7] 0.125 | [8] -0.018 | [1] -0.157 | [9] 0.119 | [12] 0.108 | [2] -0.186 | [14] -0.264 | [3] -0.223 | [4] 0.088

GEMIN7 (UniProt Q9H840)
inactive: [7] 0.098 | [8] -0.089 | [16] 0.022 | [17] 0.339 | [14] 0.14

FOPNL (UniProt Q96NB1)
inactive: [5] 0.095 | [6] 0.269 | [7] -0.154 | [8] -0.033 | [16] 0.118 | [1] 0.015 | [9] 0.007 | [10] -0.025 | [17] 0.032 | [11] -0.054 | [12] 0.23 | [2] 0.075 | [13] 0.216 | [14] -0.039 | [3] -0.069 | [15] -0.115 | [4] 0.067

FUT10 isoform 2 (UniProt Q6P4F1)
inactive: [7] 0.012 | [16] -0.053 | [17] -0.042

FTSJ1 isoform 2 (UniProt Q9UET6)
inactive: [8] -0.082 | [12] -0.12 | [14] -0.046

GCG (UniProt P01275)
inactive: [10] 1.36 | [11] 0.571 | [2] 1.82 | [15] -0.305

GAPDH isoform 2 (UniProt P04406)
inactive: [8] -0.101 | [14] 0.035

GDPGP1 (UniProt Q6ZNW5)
inactive: [5] 0.031 | [6] 0.095 | [8] -0.124 | [10] -0.034 | [11] -0.132 | [2] -0.077 | [13] -0.023 | [14] -0.086 | [15] -0.019

GFOD2 (UniProt Q3B7J2)
inactive: [7] 0.015

GDPD3 (UniProt Q7L5L3)
inactive: [5] 0.031 | [7] -0.048 | [8] -0.1 | [16] -0.081 | [1] 0.027 | [17] 0.054 | [14] 0.251 | [3] -0.074 | [4] -0.132

FUNDC1 (UniProt Q8IVP5)
inactive: [5] 0.078 | [12] 0.049

FTSJ3 (UniProt Q8IY81)
inactive: [5] 0.067 | [8] -0.119 | [16] -0.312 | [10] 0.128 | [17] 0.154 | [11] -0.437 | [12] 0 | [2] -0.074 | [14] 0.012 | [15] -0.259

GABPB1 (UniProt Q06547)
inactive: [5] -0.053 | [8] -0.011 | [1] 0.049 | [9] 0.014 | [12] -0.175 | [13] 0.419 | [14] -0.116 | [3] -0.177 | [4] 0.105

FUT1 (UniProt P19526)
inactive: [7] 0.155 | [12] 0.282
